Laboratory results taken from patent publication US20250000093A1, “HETEROCYCLIC COMPOUNDS FOR THE CONTROL OF INVERTEBRATE PESTS” (BASF SE, priority 2021, published 2025).
Some results were stated once for a whole list of compounds, not compound by compound.

Assays:
Format in all cases: in vivo
Anthonomus grandis = test: B.4 Boll weevil, insect diet and eggs in microtiter plates; details: 2500 ppm; egg and larval mortality; 5 days
Method: B.4 Boll Weevil (Anthonomus grandis)
For evaluating control of boll weevil (Anthonomus grandis) the test unit consisted of 96-well-microtiter plates containing an insect diet and 5-10 A. grandis eggs.
The compounds were formulated using a solution containing 75% v/v water and 25% v/v DMSO. Different concentrations of formulated compounds were sprayed onto the insect diet at 5 μl, using a custom-built micro atomizer, at two replications.
After application, microtiter plates were incubated at about 25±1° C. and about 75±5% relative humidity for 5 days. Egg and larval mortality was then visually assessed.

Myzus persicae = test: B.2 Green peach aphid, systemic test on artificial diet in microtiter plates; details: 2500 ppm; adult aphids; 3 days
Text: B.2 Green Peach Aphid (Myzus persicae)
For evaluating control of green peach aphid (Myzus persicae) through systemic means the test unit consisted of 96-well-microtiter plates containing liquid artificial diet under an artificial mem brane.
The compounds were formulated using a solution containing 75% v/v water and 25% v/v DMSO. Different concentrations of formulated compounds were pipetted into the aphid diet, using a custom built pipetter, at two replications.
After application, 5-8 adult aphids were placed on the artificial membrane inside the microtiter plate wells. The aphids were then allowed to suck on the treated aphid diet and incubated at about 23±1° C. and about 50±5% relative humidity for 3 days. Aphid mortality and fecundity was then visually assessed.

Spodoptera eridania = test: B.5 Southern armyworm, 2nd instar larvae, sprayed lima bean plants; details: 300 ppm, 4 days after treatment
Method: B.5. Southern Armyworm (Spodoptera eridania), 2nd Instar Larvae
The active compounds were formulated by a Tecan liquid handler in 100% cyclohexanone as a 10,000 ppm solution supplied in tubes. The 10,000 ppm solution was serially diluted in 100% cyclohexanone to make interim solutions. These served as stock solutions for which final dilutions were made by the Tecan in 50% acetone:50% water (v/v) into 10 or 20 ml glass vials. A nonionic surfactant (Kinetic®) was included in the solution at a volume of 0.01% (v/v). The vials were then inserted into an automated electrostatic sprayer equipped with an atomizing nozzle for application to plants/insects. Lima bean plants (variety Sieva) were grown 2 plants to a pot and selected for treatment at the 1st true leaf stage. Test solutions were sprayed onto the foliage by an automated electrostatic plant sprayer equipped with an atomizing spray nozzle. The plants were dried in the sprayer fume hood and then removed from the sprayer. Each pot was placed into perforated plastic bags with a zip closure. Ten to 11 armyworm larvae were placed into the bag and the bags zipped closed. Test plants were maintained in a growth room at about 25° C. and about 20-40% relative humidity for 4 days, avoiding direct exposure to fluorescent light (14:10 light:dark photoperiod) to prevent trapping of heat inside the bags. Mortality and reduced feeding were assessed 4 days after treatment, compared to untreated control plants.

Heliothis virescens = test: B.3 Tobacco budworm, insect diet and eggs in microtiter plates; details: 2500 ppm; egg and larval mortality; 5 days
Method: B.3 Tobacco Budworm (Heliothis virescens)
For evaluating control of tobacco budworm (Heliothis virescens) the test unit consisted of 96-well-microtiter plates containing an insect diet and 15-25 H. virescens eggs.
The compounds were formulated using a solution containing 75% v/v water and 25% v/v DMSO. Different concentrations of formulated compounds were sprayed onto the insect diet at 10 μl, using a custom-built micro atomizer, at two replications.
After application, microtiter plates were incubated at about 28±1° C. and about 80±5% relative humidity for 5 days. Egg and larval mortality was then visually assessed.

Plutella xylostella = test: B.1 Diamond back moth, cabbage leaf dip test; details: 300 ppm; 3rd instar larvae; 72 hours after treatment
Method: B.1 Diamond Back Moth (Plutella xylostella)
The active compound was dissolved at the desired concentration in a mixture of 1:1 (vol:vol) distilled water:acetone. Surfactant (Kinetic HV) was added at a rate of 0.01% (vol/vol). The test solution was prepared on the day of use.
Leaves of cabbage were dipped in test solution and air-dried. Treated leaves were placed in petri dishes lined with moist filter paper and inoculated with ten 3rd instar larvae. Mortality was recorded 72 hours after treatment. Feeding damages were also recorded using a scale of 0-100%.

Dichromothrips corbetti = test: B.6 Orchid thrips, floral-immersion technique; details: 300 ppm; adult thrips; 72 hours after treatment
Method: B.6 Orchid Thrips (Dichromothrips corbetti)
Dichromothrips corbetti adults used for bioassay were obtained from a colony maintained continuously under laboratory conditions. For testing purposes, the test compound is diluted in a 1:1 mixture of acetone:water (vol:vol), plus Kinetic HV at a rate of 0.01% v/v.
Thrips potency of each compound was evaluated by using a floral-immersion technique. All petals of individual, intact orchid flowers were dipped into treatment solution and allowed to dry in Petri dishes. Treated petals were placed into individual re-sealable plastic along with about 20 adult thrips. All test arenas were held under continuous light and a temperature of about 28° C. for duration of the assay. After 3 days, the numbers of live thrips were counted on each petal. The percent mortality was recorded 72 hours after treatment.

Row | SMILES | mortality in comparison with untreated controls (Anthonomus grandis) | mortality in comparison with untreated controls (Myzus persicae) | mortality in comparison with untreated controls (Spodoptera eridania) | mortality in comparison with untreated controls (Heliothis virescens) | mortality in comparison with untreated controls (Plutella xylostella) | mortality in comparison with untreated controls (Dichromothrips corbetti)
1 | CCn1cnn(-c2nccnc2C(C)N(CC2CC2(F)F)C(=O)c2cc(Br)cc(S(C)(=O)=O)c2)c1=O (stereo not drawn) [I-6] | at least 75% | at least 75% | – | – | – | –
2 | CC(NC(=O)c1cc(Cl)cc(C(F)(F)F)c1)c1nccnc1-n1ncn(-c2ccccc2)c1=O (stereo not drawn) [I-7] | at least 75% | at least 75% | at least 75% | at least 75% | at least 75% | –
3 | CC(NC(=O)c1cc(Cl)cc(C(F)(F)F)c1)c1nccnc1-n1ncn(S(C)(=O)=O)c1=O (stereo not drawn) [I-9] | at least 75% | at least 75% | – | – | at least 75% | at least 75%
4 | CC(NC(=O)c1cc(C(F)(F)F)cc(C(F)(F)F)c1)c1nccnc1-n1ncn(CC(F)(F)F)c1=O (stereo not drawn) [I-11] | at least 75% | at least 75% | at least 75% | at least 75% | at least 75% | –
5 | CCn1cnn(-c2nccnc2C(C)NC(=O)c2cc(Cl)nc(Cl)c2)c1=O (stereo not drawn) [I-12] | at least 75% | at least 75% | at least 75% | – | at least 75% | –
6 | CC(NC(=O)c1cc(Br)cc(C(F)(F)F)c1)c1ncncc1-n1ncn(CC(F)(F)F)c1=O (stereo not drawn) [I-13] | at least 75% | at least 75% | – | at least 75% | at least 75% | –
7 | CC(NC(=O)c1cc(Cl)cc(S(C)(=O)=O)c1)c1ncc(Br)cc1-n1ncn(CC(F)(F)F)c1=O (stereo not drawn) [I-14] | at least 75% | at least 75% | – | – | – | –
8 | CC(NC(=O)c1cc(Cl)cc(C(F)(F)F)c1)c1ncc(Br)cc1-n1ncn(CC(F)(F)F)c1=O (stereo not drawn) [I-16] | at least 75% | – | at least 75% | at least 75% | at least 75% | –
9 | CC(NC(=O)c1cc(Br)cc(S(C)(=O)=O)c1)c1nccnc1-n1ncn(C2CC2)c1=O (stereo not drawn) [I-17] | at least 75% | at least 75% | – | – | – | at least 75%
10 | CC(NC(=O)c1cc(Br)cc(S(C)(=O)=O)c1)c1nccnc1-n1nc(-c2ccccn2)n(C)c1=O (stereo not drawn) [I-18] | – | at least 75% | – | – | – | –
11 | CC(NC(=O)c1cc(Br)cc(OC(F)(F)F)c1)c1nccnc1-n1ncn(CC2CC2)c1=O (stereo not drawn) [I-19] | – | – | at least 75% | – | – | –
12 | CC(NC(=O)c1cc(C(F)(F)F)cc(C(F)(F)F)c1)c1nccnc1-n1ncn(CC=C(Cl)Cl)c1=O (stereo not drawn) [I-20] | – | – | at least 75% | – | – | –
13 | CCN(C)C(=O)Cn1cnn(-c2nccnc2C(C)NC(=O)c2cc(C(F)(F)F)cc(C(F)(F)F)c2)c1=O (stereo not drawn) [I-21] | – | – | at least 75% | – | – | –
14 | CC(NC(=O)c1cc(Br)cc(C#N)c1)c1nccnc1-n1ncn(CC2CC2)c1=O (stereo not drawn) [I-22] | – | – | at least 75% | – | – | –
15 | CC(NC(=O)c1cc(Cl)cc(C(F)(F)F)c1)c1nccnc1-n1ncn(C2CC2)c1=O (stereo not drawn) [I-23] | at least 75% | at least 75% | at least 75% | at least 75% | – | –
16 | Cc1nn(-c2nccnc2C(C)NC(=O)c2cc(Br)cc(S(C)(=O)=O)c2)c(=O)n1CC1CC1 (stereo not drawn) [I-24] | at least 75% | at least 75% | – | – | – | –
17 | CC(NC(=O)c1cc(Cl)cc(C(F)(F)F)c1)c1ncc(Cl)cc1-n1ncn(CC(F)(F)F)c1=O (stereo not drawn) [I-25] | at least 75% | – | at least 75% | at least 75% | – | –
18 | CC(NC(=O)c1cc(Cl)cc(S(=O)(=O)c2ccc(F)cc2)c1)c1nccnc1-n1ncn(C2CC2)c1=O (stereo not drawn) [I-26] | at least 75% | at least 75% | at least 75% | at least 75% | – | –
19 | CC(NC(=O)c1cc(Cl)cc(C(F)(F)F)c1)c1ncc(C#N)cc1-n1ncn(CC(F)(F)F)c1=O (stereo not drawn) [I-30] | at least 75% | at least 75% | – | – | – | –
20 | CC(NC(=O)c1cc(Cl)cc(C(F)(F)F)c1)c1nc(Cl)ccc1-n1ncn(CC(F)(F)F)c1=O (stereo not drawn) [I-31] | at least 75% | at least 75% | – | at least 75% | – | –
21 | CC(NC(=O)c1cc(C#N)cc(C(F)(F)F)c1)c1ncc(C#N)cc1-n1ncn(CC(F)(F)F)c1=O (stereo not drawn) [I-32] | at least 75% | at least 75% | – | – | – | –
22 | CC(NC(=O)c1cc(C#N)cc(C(F)(F)F)c1)c1nc(C#N)ccc1-n1ncn(CC(F)(F)F)c1=O (stereo not drawn) [I-33] | at least 75% | – | – | at least 75% | – | –
23 | CC(NC(=O)c1cc(Cl)cc(C(F)(F)F)c1)c1nnccc1-n1ncn(CC(F)(F)F)c1=O (stereo not drawn) [I-35] | at least 75% | – | – | – | – | –
24 | CC(c1nccnc1-n1ncn(-c2ccccc2)c1=O)N(CC1CC1)C(=O)c1cc(C(F)(F)F)cc(C(F)(F)F)c1 (stereo not drawn) [I-38] | at least 75% | – | – | at least 75% | – | –
